Data as given in PMC5335694.
No constants are given. Whether binding was seen depends on the method and setting. Binding can be weak; no strength is given. Tags and fused reporters may be left off the sequences shown.

Biological target: T1, mouse Trip13 (aa 1-432) fused to LexA (N-LexA-Trip13-C) (mouse) (UniProt Q3UA06)
T1 sequence: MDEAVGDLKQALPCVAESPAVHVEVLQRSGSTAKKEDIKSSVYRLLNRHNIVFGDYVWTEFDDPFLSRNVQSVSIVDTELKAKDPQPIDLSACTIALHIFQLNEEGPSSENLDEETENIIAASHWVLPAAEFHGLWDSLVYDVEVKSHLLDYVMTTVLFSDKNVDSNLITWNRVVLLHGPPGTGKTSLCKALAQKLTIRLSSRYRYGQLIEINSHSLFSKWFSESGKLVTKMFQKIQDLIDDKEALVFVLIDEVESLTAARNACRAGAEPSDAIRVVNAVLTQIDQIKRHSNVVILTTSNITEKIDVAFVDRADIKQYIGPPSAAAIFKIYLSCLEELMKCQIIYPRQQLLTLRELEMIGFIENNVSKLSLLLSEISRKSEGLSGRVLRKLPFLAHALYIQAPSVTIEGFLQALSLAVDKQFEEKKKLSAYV
Assay: two-hybrid; LexA-Trip13 (1-432) bait screened against a random-primed mouse kidney cDNA library in pP6 by mating; selection on medium lacking Trp, Leu, His with 50 mM 3-aminotriazole

“tetratricopeptide domain 5 (TTC5), prey from a mouse kidney cDNA library (domain or fragment)” was tested, and the binding was “binds”.
